Data: patent US20170305922A1, “CARM1 INHIBITORS AND USES THEREOF” (Epizyme, Inc., priority 2014, published 2017)
The match of structure and compound is tentative.

Sequences of proteins named here, by UniProt entry; tags and fusion partners are left off. Residues count along the entry.
UniProt Q86X55, 1-585 isoform 1: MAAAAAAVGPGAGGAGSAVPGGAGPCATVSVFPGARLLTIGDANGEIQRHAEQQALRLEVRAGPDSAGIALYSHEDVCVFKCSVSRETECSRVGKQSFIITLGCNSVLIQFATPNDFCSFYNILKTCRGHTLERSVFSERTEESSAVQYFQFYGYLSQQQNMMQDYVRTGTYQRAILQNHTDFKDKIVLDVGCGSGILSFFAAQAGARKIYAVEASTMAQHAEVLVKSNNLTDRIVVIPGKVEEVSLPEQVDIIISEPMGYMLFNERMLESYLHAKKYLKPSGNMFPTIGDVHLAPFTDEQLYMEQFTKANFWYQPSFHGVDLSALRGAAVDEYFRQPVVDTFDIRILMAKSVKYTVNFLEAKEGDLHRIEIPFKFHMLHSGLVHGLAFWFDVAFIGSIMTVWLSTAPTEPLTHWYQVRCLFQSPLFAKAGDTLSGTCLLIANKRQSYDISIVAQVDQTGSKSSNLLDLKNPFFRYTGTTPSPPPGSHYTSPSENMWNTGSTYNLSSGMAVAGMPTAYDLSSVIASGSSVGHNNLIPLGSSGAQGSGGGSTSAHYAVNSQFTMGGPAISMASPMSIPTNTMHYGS

Legend:
[1] = molecular target: Human CARM1 (PRMT4) (Homo sapiens, UniProt Q86X55); assay: CARM1 enzyme assay on peptide substrates (3H-SAM Flashplate); conditions: read-out: Biochem IC50; Biochemical assay; CARM1 0.25 nM, 3H-SAM 30 nM, peptide 250 nM
[2] = system: asymmetric di-methyl PABP1 in RKO cells; assay: RKO methylation assay: In Cell Western (ICW) for asymmetric di-methyl PABP1 (PABP1me2a); conditions: read-out: Cellular IC50, Cellular-based (PABP1me2a) ICW (In Cell Western) assay, 48 hours
Source text: RKO adherent cells were purchased from ATCC (American Type Culture Collection), Manassas, Va., USA. DMEM/Glutamax medium, penicillin-streptomycin, heat inactivated fetal bovine serum, 0.05% trypsin and D-PBS were purchased from Life Technologies, Grand Island, N.Y., USA. Odyssey blocking buffer, 800CW goat anti-rabbit IgG (H+L) antibody, and Licor Odyssey infrared scanner were purchased from Licor Biosciences, Lincoln, Nebr., USA. Asymmetric di-methyl PABP1 antibody was purchased from Cell Signaling Technology, Danvers, Mass., USA. Methanol was purchased from VWR, Franklin, Mass., USA. 10% Tween 20 was purchased from KPL, Inc., Gaithersburg, Md., USA. Paraformaldehyde (PFA) was purchased from EM Sciences. DRAQ5 was purchased from Biostatus Limited, Leicestershire, UK.
RKO adherent cells were maintained in growth medium (DMEM/Glutamax medium supplemented with 10% v/v heat inactivated fetal bovine serum and 100 units/mL penicillin-streptomycin) and cultured at 37° C. under 5% CO2.
Cell treatment, In Cell Western (ICW) for detection of asymmetric di-methyl PABP1 and DNA content: RKO cells were seeded in assay medium at a concentration of 30,000 cells per mL to a poly-D-lysine coated 384 well culture plate (BD Biosciences 356697) with 50 μL per well. Compound (100 nL) from a 96-well source plate was added directly to 384 well cell plate. Plates were incubated at 37° C., 5% CO2 for 48 hours. After two days of incubation, plates were brought to room temperature outside of the incubator for ten minutes and blotted on paper towels to remove cell media. […]
First, the ratio for each well was determined by:
Each plate included fourteen control wells of DMSO only treatment (minimum inhibition) as well as fourteen control wells for maximum inhibition treated with 20 μM of a reference compound. The average of the ratio values for each control type was calculated and used to determine the percent […] for each test well in the plate. […]
Percent inhibition was determined and IC50 curves were generated using triplicate wells per concentration of compound.

| SMILES | IC50 [1] [nM] | IC50 [2] [nM] |
| --- | --- | --- |
| CNC[C@@H](O)COc1ccc(Cl)c(-c2nc(-c3c(C)noc3C)c(C)c(N3CC4(CC(C(=O)N5CCOCC5)C4)C3)n2)c1 | 7.4 | 239 |
| CNC[C@@H](O)COc1ccc(Cl)c(-c2nc(-c3c(C)noc3C)c(C)c(N3Cc4cnc(OC(C)C)nc4C3)n2)c1 | 3.7 | 39 |
| CNC[C@@H](O)COc1ccc(Cl)c(-c2nc(-c3c(C)noc3C)c(C)c(N3CC4(CC=CCC4)C3)n2)c1 | 4.1 | 195 |
